Results from patent US8979831B2 (priority 2008, dated 2015).
Several values for one entry are separate records, joined by “and”; a condition that tells them apart may be missing. Equal entries are not always repeated. Where two headings read alike, the source gives them in different places. The source gives many values for each of these; only a part stands here.

Test system: porcine liver samples
Conditions: for Temp: 100 microliters alone

How did the pH (200 microliters alone, 0:00 min) turn out when `CC(=O)OC(C)=O` [Acetic Anhydride] was run?
The pH was 5.92 and 7.42 and 6.35 and 6.28.

And the pH (200 microliters alone, 0:15 min)?
The pH was 5.30 and 3.65 and 3.56 and 5.64 and 6.14.

And the pH (200 microliters alone, 0:30 min)?
Its pH is 5.17 and 3.54 and 3.41 and 5.62 and 5.21.

And the pH (200 microliters alone, 0:45 min)?
The pH was 5.01 and 3.50 and 3.28 and 5.50 and 4.91.

What about the pH (200 microliters alone, 1:15 min) of the same compound?
Its pH is 4.80 and 3.27 and 3.16 and 5.23 and 4.78.

What about the pH (200 microliters alone, 1:30 min) of the same compound?
The pH was 4.68 and 3.20 and 3.07 and 5.01 and 4.72.

What about the pH (200 microliters alone, 1:45 min) of the same compound?
The pH was 4.56 and 3.12 and 3.03 and 4.64 and 4.66.

And the pH (200 microliters alone, 2:00 min)?
The pH was 4.51 and 3.09 and 2.95 and 4.49 and 5.44.

And the pH (200 microliters alone, 2:15 min)?
Its pH is 4.51 and 3.03 and 2.92 and 4.39 and 4.45.

What about the pH (200 microliters alone, 2:30 min) of the same compound?
Its pH is 4.45 and 2.96 and 2.89 and 4.33 and 4.20.

And the pH (200 microliters alone, 2:45 min)?
The pH was 4.39 and 2.92 and 2.85 and 4.23 and 4.13.

And the pH (200 microliters alone, 3:00 min)?
The pH was 4.33 and 2.90 and 2.82 and 4.17 and 4.06.

What about the pH (200 microliters alone, 3:15 min) of the same compound?
Its pH is 4.29 and 2.88 and 2.78 and 4.09 and 4.02.

And the pH (200 microliters alone, 3:30 min)?
Its pH is 4.26 and 2.84 and 2.75 and 4.07 and 3.99.

And the pH (200 microliters alone, 3:45 min)?
The pH was 4.19 and 2.81 and 2.69 and 4.01 and 3.95.

And the pH (200 microliters alone, 4:00 min)?
Its pH is 4.16 and 2.78 and 2.69 and 3.98 and 3.93.

And the pH (200 microliters alone, 4:15 min)?
Its pH is 4.13 and 2.75 and 2.68 and 3.93 and 3.90.

And the pH (200 microliters alone, 4:30 min)?
The pH was 4.11 and 2.74 and 2.66 and 3.90 and 3.89.

And the pH (200 microliters alone, 4:45 min)?
Its pH is 4.08 and 2.72 and 2.63 and 3.86 and 3.87.

And the pH (200 microliters alone, 5:00 min)?
The pH was 4.07 and 2.70 and 2.93 and 3.82 and 3.86.

And the pH (300 microliters alone, 0:00 min)?
The pH was 5.39 and 6.56 and 6.26 and 5.47 and 5.53.

And the pH (300 microliters alone, 0:15 min)?
The pH was 3.92 and 5.16 and 3.67 and 3.76 and 4.63.

And the pH (300 microliters alone, 0:30 min)?
Its pH is 3.76 and 4.68 and 3.42 and 3.58 and 4.42.

And the pH (300 microliters alone, 0:45 min)?
Its pH is 3.74 and 4.42 and 3.3 and 3.47 and 4.36.

What about the pH (300 microliters alone, 1:00 min) of the same compound?
The pH was 3.72 and 4.33 and 3.23 and 3.4 and 4.3.

And the pH (300 microliters alone, 1:15 min)?
Its pH is 3.72 and 4.25 and 3.14 and 3.34 and 4.23.

And the pH (300 microliters alone, 1:30 min)?
Its pH is 3.72 and 4.14 and 3.08 and 3.3 and 4.16.

What about the pH (300 microliters alone, 1:45 min) of the same compound?
Its pH is 3.72 and 4.06 and 2.96 and 3.26 and 4.11.

What about the pH (300 microliters alone, 2:00 min) of the same compound?
The pH was 3.72 and 3.99 and 2.93 and 3.19 and 4.05.

What about the pH (300 microliters alone, 2:15 min) of the same compound?
Its pH is 3.72 and 3.91 and 2.87 and 3.15 and 4.

And the pH (300 microliters alone, 2:30 min)?
The pH was 3.72 and 3.83 and 2.84 and 3.11 and 3.96.

And the pH (300 microliters alone, 2:45 min)?
The pH was 3.71 and 3.76 and 2.78 and 3.07 and 3.9.

What about the pH (300 microliters alone, 3:00 min) of the same compound?
The pH was 3.68 and 3.75 and 2.75 and 3 and 3.87.

What about the pH (300 microliters alone, 3:15 min) of the same compound?
Its pH is 3.66 and 3.75 and 2.67 and 2.96 and 3.8.

What about the pH (300 microliters alone, 3:30 min) of the same compound?
The pH was 3.64 and 3.7 and 2.64 and 2.94 and 3.78.

And the pH (300 microliters alone, 3:45 min)?
The pH was 3.61 and 3.63 and 2.63 and 2.89 and 3.74.

What about the pH (300 microliters alone, 4:00 min) of the same compound?
Its pH is 3.6 and 3.62 and 2.59 and 2.85 and 3.72.

And the pH (300 microliters alone, 4:15 min)?
The pH was 3.58 and 2.55 and 2.83 and 3.68.

What about the pH (300 microliters alone, 4:30 min) of the same compound?
Its pH is 3.57 and 3.55 and 2.52 and 2.8 and 3.66.

And the pH (300 microliters alone, 4:45 min)?
The pH was 3.54 and 3.52 and 2.48 and 2.77 and 3.62 and 3.46.

What about the pH (300 microliters alone, 5:00 min) of the same compound?
Its pH is 3.52 and 3.48 and 2.47 and 2.74 and 3.6 and 3.45.

And the pH (500 microliters alone, 0:00 min)?
The pH was 5.5 and 6.57 and 5.6 and 5.7 and 6.32.

And the pH (500 microliters alone, 0:15 min)?
Its pH is 5.4 and 6.45 and 3.78 and 5.6 and 6.25.

And the pH (500 microliters alone, 0:30 min)?
Its pH is 5.27 and 6.3 and 3.62 and 5.61 and 4.4.

And the pH (500 microliters alone, 0:45 min)?
Its pH is 5.11 and 6.2 and 3.45 and 5.46 and 3.9.

And the pH (500 microliters alone, 1:00 min)?
Its pH is 5 and 6.22 and 3.36 and 5.39 and 3.69.

And the pH (500 microliters alone, 1:15 min)?
The pH was 4.84 and 6.21 and 3.34 and 5.2 and 3.68.

And the pH (500 microliters alone, 1:30 min)?
The pH was 4.75 and 6.11 and 3.24 and 4.96 and 3.61.

What about the pH (500 microliters alone, 1:45 min) of the same compound?
Its pH is 4.61 and 6.11 and 3.21 and 4.82 and 3.6.

What about the pH (500 microliters alone, 2:00 min) of the same compound?
The pH was 4.54 and 6.04 and 3.13 and 4.67 and 3.6.

What about the pH (500 microliters alone, 2:15 min) of the same compound?
The pH was 4.61 and 6.02 and 3.09 and 4.55 and 3.6.

And the pH (500 microliters alone, 2:30 min)?
The pH was 4.54 and 5.95 and 3.06 and 4.45 and 3.6.

And the pH (500 microliters alone, 2:45 min)?
Its pH is 4.48 and 5.89 and 3.01 and 4.3 and 3.6.

What about the pH (500 microliters alone, 3:00 min) of the same compound?
Its pH is 4.4 and 5.87 and 2.98 and 4.21 and 3.55.

What about the pH (500 microliters alone, 3:15 min) of the same compound?
The pH was 4.36 and 5.82 and 2.95 and 4.16 and 3.55.

What about the pH (500 microliters alone, 3:30 min) of the same compound?
The pH was 4.32 and 5.75 and 2.92 and 4.13 and 3.52.

And the pH (500 microliters alone, 3:45 min)?
The pH was 4.21 and 5.67 and 2.91 and 4.05 and 3.49.

And the pH (500 microliters alone, 4:00 min)?
The pH was 4.18 and 5.65 and 2.88 and 4.03 and 3.47.

What about the pH (500 microliters alone, 4:15 min) of the same compound?
Its pH is 4.15 and 5.55 and 2.87 and 3.99 and 3.45.

And the pH (500 microliters alone, 4:30 min)?
Its pH is 4.13 and 5.5 and 2.85 and 3.95 and 3.45.

What about the pH (500 microliters alone, 4:45 min) of the same compound?
The pH was 4.1 and 5.41 and 2.84 and 3.92 and 3.43.

And the pH (500 microliters alone, 5:00 min)?
The pH was 4.08 and 5.33 and 2.84 and 3.9 and 3.42.

For `CC(=O)Cl` [Acetyl Chloride], which Temp (0:00 min) is on record?
The Temp was 20.5 C. and 19.7 C. and 18.8 C. and 17.4 C.

And the Temp (0:15 min)?
The Temp was 34.2 C. and 30.2 C. and 26.3 C. and 23.6 C.

And the Temp (0:30 min)?
The Temp was 30.1 C. and 27.4 C. and 24 C. and 23.2 C.

What about the Temp (0:45 min) of the same compound?
Its Temp is 28.5 C. and 25.1 C. and 23.7 C. and 23 C.

What about the Temp (1:15 min) of the same compound?
Its Temp is 23.6 C. and 23.1 C. and 22.2 C.

What about the Temp (1:30 min) of the same compound?
Its Temp is 25.2 C. and 22.2 C. and 22.7 C. and 21.7 C.

And the Temp (1:45 min)?
The Temp was 25.1 C. and 22.2 C. and 22.6 C. and 21.5 C.

And the Temp (2:00 min)?
Its Temp is 24.5 C. and 21.9 C. and 22.2 C. and 21.3 C.

What about the Temp (2:15 min) of the same compound?
The Temp was 24 C. and 21.6 C. and 22 C. and 21.1 C.

And the Temp (2:30 min)?
The Temp was 23.6 C. and 21.5 C. and 21.7 C. and 20.9 C.

What about the Temp (2:45 min) of the same compound?
Its Temp is 23.3 C. and 21.5 C. and 20.8 C.

And the Temp (3:00 min)?
The Temp was 22.9 C. and 21.5 C. and 21.3 C. and 20.8 C.

What about the Temp (3:15 min) of the same compound?
Its Temp is 22.6 C. and 21.4 C. and 21.2 C. and 20.7 C.

What about the Temp (3:30 min) of the same compound?
The Temp was 22.4 C. and 21.2 C. and 21.1 C. and 20.6 C.

What about the Temp (3:45 min) of the same compound?
The Temp was 22.2 C. and 21.1 C. and 21 C. and 20.6 C.

And the Temp (4:00 min)?
The Temp was 22 C. and 20.9 C. and 20.5 C.

And the Temp (4:15 min)?
The Temp was 21.8 C. and 20.9 C. and 20.8 C. and 20.4 C.

What about the Temp (4:45 min) of the same compound?
The Temp was 21.5 C. and 20.7 C. and 20.6 C. and 20.3 C.

And the Temp (5:00 min)?
Its Temp is 21.4 C. and 20.7 C. and 20.5 C. and 20.3 C.
